What is called AC50 is the midpoint of the concentration-response curve, whichever way the signal moves. High values mean activity only at high concentration, low ones activity at low concentration.

This passage reports cell number change and AC50 results from PubChem BioAssay AID2685 (National Center for Advancing Translational Sciences (NCATS), 2010).

Values joined by “and” are separate entries in the source; they are usually repeats but may differ in a detail not shown here. Identical values can stand only once. This is one part of the list. Shown are side measurements of this screen, not its main read-out; they come without a call. The list favours compounds with an active or inconclusive main result. Words in brackets tell the shape of the fitted curve; partial curves, single points and poor fits give uncertain potencies.

The nature of the assay: qHTS Assay for Lipid Storage Modulators in Drosophila S3 Cells.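 For cell number change: cells counted by Cell Tracker Red CMTPX staining in the red channel.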 The note with it: BODIPY lipid droplet fluorescence, 18-24 h; for cell number change: measured here: cell count max response, cells fed with added oleic acid. The method in brief: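 Drosophila S3 cells got compounds at several concentrations plus oleic acid (400 uM solution). Laser-scanning cytometry with 488 nm excitation read lipid droplets at 500-530 nm and cells at 575-640 nm. Percent activity was relative to 20 uM Triacsin C.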
In general terms: Quantitative high-throughput screening tests each substance at several concentrations.

Where [1] appears, read: measured here: cell number channel AC50, cells fed with added oleic acid.
[2] abbreviates: measured here: lipid fluorescence (Fed channel) AC50, cells fed with added oleic acid.

As for `COc1cc(-c2nc3cc(C)ccn3c2NC2CCCCC2)ccc1-c1ccc(C(C)=O)cc1`, the cell number change was -32.9%. Besides, the AC50 under setting [1] is 9.2 µM [falling, partial curve]. In addition, under setting [2], the AC50 was 0.731 µM [rising, partial curve, poor fit].
In the case of `CCCN(CCC)CC(C)(C)NS(=O)(=O)c1ccc(Cl)cc1`, the cell number change was -17.9%. Besides, under setting [2], the AC50 is 0.058 µM [falling, full curve].
Turning to `Cc1nc(NC(=O)c2ccco2)sc1C(=O)Nc1ccc(Br)cc1`, the cell number change is -7.43%.
Take `C/C(=N\NC(=O)c1nnn(-c2nonc2N)c1CSc1ccc(Cl)cc1)c1cccnc1`: the cell number change came out at 30.9%. The AC50 under setting [1] was 23.1 µM [rising, single point].
Turning to `Cc1ccc(-c2nc3c(c(=O)[nH]c(=O)n3Cc3ccccc3)n2Cc2ccccc2)o1`, the cell number change was 20.3%. In addition, the half-maximal activity concentration (AC50) under setting [2] is 0.092 µM [rising, full curve, poor fit].
`O=C1NC(=O)/C(=C\c2ccc(Cl)nc2)S1`: the cell number change is 34.8%. Besides, the AC50 under setting [1] is 0.461 µM [rising, full curve]. In addition, under setting [2], the AC50 is 0.58 µM [rising, partial curve, poor fit].
For the compound `CCOc1ccccc1-n1c(SCC(=O)Nc2ccc(CC)cc2)nc2n[nH]c(C)c2c1=N`, the cell number change was -18%.
Regarding `CCOc1cc(C#N)c(NC(=O)c2cccnc2)cc1OCC`, the cell number change was 26.4%. The AC50 under setting [2] was 29.1 µM [rising, single point].
With `Cn1cc(C(=O)NC2CCCCCC2)c(=O)c2cc(S(=O)(=O)N3CCCC3)ccc21`, the cell number change is -62.9%. The AC50 under setting [1] was 18.4 µM [falling, single point]. For the same compound, the AC50 under setting [2] is 9.2 µM [falling, single point].
With `COc1ccc(C(=O)c2ccc(Cl)cc2)c2ccccc12`, the cell number change stood at 4.88%. Further, the AC50 under setting [2] is 6.51 µM [falling, single point].
For `CC1CCCN(C(=O)COC(=O)C2CCN(S(=O)(=O)c3ccc(Cl)c(C(F)(F)F)c3)CC2)C1` (stereo unspecified), the AC50 under setting [1] was 0.82 µM [rising, single point].
As to `CCn1c(SCC(=O)Nc2nc3c(s2)CCCC3)nnc1-c1ccccc1`, the cell number change is -44.5%. Further, the concentration at half-maximal activity (AC50) under setting [1] was 13 µM [falling, partial curve]. Moreover, the AC50 under setting [2] is 0.00461 µM [rising, full curve, poor fit].
Consider `O=C(N/N=C/c1ccccc1Cl)c1nc2ccc([N+](=O)[O-])cc2c(=O)[nH]1`, for which the cell number change amounted to 7.46%.
Consider `Cc1nc(C)n(C)c(=O)c1-c1ccccc1`, for which the AC50 is 6.51 µM [rising, single point] under setting [1] and 6.51 µM [rising, single point] under setting [2].
Consider `O=C(CNC(=O)c1ccc(Br)o1)NNC(=O)COc1ccccc1Cl`, for which the cell number change is -0.268%. For the same compound, the AC50 under setting [2] is 0.13 µM [falling, full curve, poor fit].
In the case of `NC(=O)CSc1ncnc2c1oc1ccccc12`, the cell number change came to 88.4%. For the same compound, the AC50 under setting [1] was 18.4 µM [rising, single point]. Besides, the AC50 under setting [2] is 29.1 µM [rising, single point].
On to `O=C(c1coc(=O)c(Br)c1)N1CCCc2ccccc21`, for which the cell number change was -6.53%.
On to `CCOc1ccc(NC(=O)CCC(=O)NNC(=O)c2ccccc2Cl)cc1`, for which the cell number change was -25.5%. The AC50 under setting [1] is 4.11 µM [falling, full curve, poor fit].
Turning to `Cc1csc(SCC(=O)Nc2oc(C)c3c(C)n[nH]c(=O)c23)n1`, the cell number change was determined as 40.8%. Further, under setting [1], the AC50 is 0.184 µM [rising, full curve]. For the same compound, the AC50 under setting [2] is 0.0731 µM [rising, full curve, poor fit].
Consider `COc1cc(C(=O)NCC(=O)OCC(=O)c2ccc[nH]2)cc(OC)c1OC`, for which the cell number change was 22.5%. For the same compound, the AC50 under setting [2] is 1.64 µM [falling, partial curve].
As to `CCC(/C=N/NC(=O)CCCCC(=O)N/N=C/C(CC)CC)CC`, the AC50 was 0.58 µM [rising, single point] under setting [1] and 0.00517 µM [rising, full curve, poor fit] under setting [2].
Consider `C/C=C(\C)C(=O)N[C@@H](C)CN1C2=NC[C@H](C(C)C)N2C[C@H]1Cc1ccc(OC)cc1`, for which the cell number change is -4.26%.
With `O=C(NCCS(=O)(=O)NCc1ccccc1Cl)c1ccc2c(c1)OCO2`, the cell number change was 4.47%. For the same compound, the AC50 under setting [2] was 5.17 µM [falling, single point].
As to `COC(=O)C(Cc1cnc(Cl)s1)(C(=O)OC)c1ccc([N+](=O)[O-])cc1[N+](=O)[O-]`, the cell number change worked out at 25.4%. The AC50 under setting [2] is 1.46 µM [rising, partial curve].
Regarding `COc1ccc(-n2nc3c(c2NC(=O)c2ccc(S(=O)(=O)N4CCOCC4)cc2)CS(=O)C3)cc1` (stereo unspecified), the cell number change is 29%.
As to `CC(=O)N(CCC(Cc1ccccc1)c1ccc2c(c1)OCO2)Cc1ccccc1F` (stereo unspecified), the cell number change was -36.4%. Also, the half-maximal activity concentration (AC50) under setting [1] is 14.6 µM [falling, partial curve]. Moreover, under setting [2], the half-maximal activity concentration (AC50) was 7.31 µM [falling, partial curve].
For the compound `COc1ccc(OC)c(CCNC(=O)c2ccccc2NC(=O)C2=C(C)OCCS2)c1`, the cell number change is -23.4%. In addition, the AC50 under setting [2] was 23.1 µM [falling, partial curve].
Turning to `CS(=O)(=O)Oc1ccc(Br)c2cccnc12`, the cell number change worked out at 53%. Moreover, the AC50 under setting [1] was 14.6 µM [rising, partial curve]. For the same compound, the AC50 under setting [2] is 18.4 µM [rising, partial curve].
Regarding `NC(=O)CC(NC(=O)Cc1ccc(Br)cc1)c1ccc(N2CCC(N3CCCCC3)CC2)c([N+](=O)[O-])c1` (stereo unspecified), the cell number change was 6.89%. For the same compound, the AC50 under setting [2] is 8.2 µM [falling, partial curve].
In the case of `COc1cc(C(=O)Nc2nc(C)c(Cc3ccc4c(c3)OCO4)s2)cc(OC)c1OC`, the cell number change is 10.3%. Moreover, the AC50 under setting [1] is 0.731 µM [rising, partial curve].
As for `CC(C)c1nc(-c2ccc([N+](=O)[O-])cc2)cs1`, the AC50 under setting [2] was 2.59 µM [rising, partial curve, poor fit].
Regarding `Cc1nc2ccccc2cc1C(=O)O`, the cell number change stood at 1.86%.
Consider `CC(C#N)(Nc1ccc(Cl)cc1)c1cccnc1` (stereo unspecified), for which the cell number change was -50.4%. Further, under setting [1], the AC50 is 29.1 µM [falling, single point].
Take `O=C(N=C1SC2CS(=O)(=O)CC2N1Cc1ccc(F)cc1)C1CCCO1` (stereo unspecified): the cell number change is -0.382%. Moreover, the AC50 under setting [2] was 20.6 µM [rising, single point].
Regarding `COc1ccc(-c2sccc2C(C)C(=O)O)cc1` (stereo unspecified), the cell number change was determined as 8.16%. The concentration at half-maximal activity (AC50) under setting [2] was 6.51 µM [falling, single point].
On to `CC(C(=O)NC1CC(C)(C)NC(C)(C)C1)c1ccc([N+](=O)[O-])cc1` (stereo unspecified), for which the cell number change is -14.1%. Moreover, the AC50 under setting [1] is 0.116 µM [falling, full curve, poor fit]. The AC50 under setting [2] was 0.00461 µM [falling, full curve, poor fit].
`Cc1ccc(C)c(S(=O)(=O)N2CCN(C(=O)c3cccnc3)CC2)c1`: the AC50 under setting [2] is 35.5 µM [falling, single point].
As to `CCOc1ccc(N2C(=O)C(c3ccccc3)=C(c3nc4ccccc4s3)C2NC(C)=O)cc1` (stereo unspecified), the AC50 under setting [2] is 1.84 µM [rising, partial curve].
As for `Cc1ccccc1OCc1n(CC(=O)OC2CC(C)CCC2C(C)C)c2ccccc2[n+]1C` (stereo unspecified), the cell number change is -80.3% and -69.4%. Besides, the AC50 under setting [1] is 32.6 µM [falling, partial curve, poor fit]. Besides, the AC50 under setting [2] is 29.1 µM [falling, single point].
As for `CCC(C)[C@H](NC(=O)N1CC(=O)Nc2ccccc21)C(=O)N[C@H](Cc1ccccc1)C(=O)O` (stereo partly specified), the AC50 under setting [2] was 2.06 µM [rising, partial curve, poor fit].
As for `COCCNC(=O)Cn1cnc2ccc(S(=O)(=O)N3CCC(C)CC3)cc2c1=O`, the cell number change is -30.4%. The AC50 under setting [1] was 13 µM [falling, partial curve, poor fit].
On to `COc1cc2nc(Nc3ccc(C)c(Cl)c3)nc(N)c2cc1OC`, for which the cell number change was -26.4%. Moreover, the AC50 under setting [2] was 29.1 µM [rising, partial curve].
As to `CN(C)c1nc(Oc2ccc(N)cc2)nc(N(C)C)n1`, the AC50 is 0.0731 µM [rising, full curve, poor fit] under setting [1] and 1.46 µM [rising, full curve] under setting [2].
For `CCC(=O)Nc1ccccc1C(=O)NC1CCCCC1`, the cell number change was determined as 45.1%. For the same compound, the AC50 under setting [1] was 29.1 µM [rising, single point].
As for `Cc1ccc(F)cc1NC(=O)c1ccc(NS(=O)(=O)c2ccc(Br)s2)cc1`, the cell number change came to 3.26%.
Consider `O=C(CN1C(=O)S/C(=C\C=C\c2ccccc2)C1=O)Nc1ccc(O)cc1`, for which the cell number change worked out at 50%. Further, under setting [1], the AC50 is 16.4 µM [rising, single point].
Consider `CCn1c(SCc2nc(-c3ccccc3)no2)nc2ccccc21`, for which the half-maximal activity concentration (AC50) under setting [2] was 4.61 µM [falling, single point].
Consider `CCCn1c(SCC(=O)NCc2ccc(C)cc2)n[nH]c1=O`, for which, under setting [2], the AC50 is 0.103 µM [falling, full curve, poor fit].
Regarding `O=C(CSc1nnc(SCc2cccc3ccccc23)s1)Nc1ccc(C(=O)O)cc1`, the cell number change stood at 8.21%. The AC50 under setting [2] was 1.16 µM [falling, partial curve, poor fit].
As for `Cc1c(NC(=O)C(C)n2cc([N+](=O)[O-])cn2)c(=O)n(-c2ccccc2)n1C` (stereo unspecified), the cell number change was -15.1%. The AC50 under setting [1] was 0.0184 µM [falling, full curve, poor fit]. Further, the half-maximal activity concentration (AC50) under setting [2] is 0.146 µM [falling, full curve, poor fit].
In the case of `CCCCSc1nnc2c(n1)OC(C(=O)c1ccccc1)Nc1ccccc1-2` (stereo unspecified), the cell number change was determined as 9.1%. Also, the AC50 under setting [2] is 6.51 µM [rising, single point].
On to `Cc1cc(Cl)ccc1NC(=O)CN1CCCC1`, for which the cell number change came out at 3.94%. Besides, the AC50 under setting [2] was 0.0517 µM [rising, full curve, poor fit].
On to `CN(Cc1ccccc1)S(=O)(=O)c1ccc(Cl)c(C(=O)NCc2cccnc2)c1`, for which the cell number change was -8.75%. The AC50 under setting [1] is 6.51 µM [falling, single point].
As to `CCCn1c(=N)n(CC(O)COc2ccc(C)cc2)c2ccccc21` (stereo unspecified), the cell number change was -22.4%. Further, the concentration at half-maximal activity (AC50) under setting [2] was 29.1 µM [falling, single point].
As to `CC(Oc1ccc(F)cc1)C(=O)N(Cc1ccccc1)c1c(N)n(Cc2ccccc2)c(=O)[nH]c1=O` (stereo unspecified), the cell number change was determined as 40.7%. Moreover, the AC50 under setting [1] was 32.6 µM [rising, single point]. Further, the AC50 under setting [2] was 4.61 µM [falling, single point].
In the case of `COCCOC(=O)c1c(C)oc2cc(Br)c(OCC(N)=O)cc12`, the cell number change is 23.7%. For the same compound, the AC50 under setting [2] was 5.17 µM [rising, full curve].
On to `COCCNc1nnc(SCC(=O)NC(=O)c2ccccc2OC)s1`, for which the cell number change is 7.92%. Besides, the AC50 under setting [1] was 4.11 µM [rising, partial curve, poor fit].
